Source: PubChem BioAssay AID1347076 (National Center for Advancing Translational Sciences (NCATS), 2019)
The whole screen tested about 400,000 compounds, of which about 13,000 (3.2%) were called active. The shares of active, inactive and inconclusive entries below differ from those in the screen. The call rests on the fitted dose curve; in most records, active means well fitted cell-killing curve with a large enough effect; inconclusive means small, poorly fitted or top-dose-only effect, or effect the other way; inactive means flat fitted curve, though single readings scatter. Where the call is inconclusive, the potency comes from a doubtful curve fit.

Assay: qHTS assay for MDR1-selective chemotherapeutics: Primary screen using the drug-selected MDR subline cells KB-V1; further: nearly all actives have a fitted effect of over 60% in size
Conditions: KB-V1 MDR cells viability, CellTiter-Glo, 72 h; activity change, negative = cytotoxicity: at 46.1 µM (top of the series)
Procedure, shortened: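 Luminescent ATP read-out (CellTiter-Glo, 10 min) measures survival of drug-selected KB-V1 MDR cells after 72 h, 37 degrees C compound exposure. Medium: phenol-red-free DMEM, 10% FBS. Values from fitted concentration-response curves.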
On the % scale 0 is the no-effect control and ±100 the full control effect; potency means the concentration at half of the fitted maximal effect.

| Structure (SMILES) | Potency | activity change, negative = cytotoxicity |
| --- | --- | --- |
| CCc1cccc(NC(=O)CCC(=O)N2CCSc3ccccc32)c1 | inconclusive: 29.1 µM [cytotoxic, single point] |  |
| O=C(/C=C/c1cccc(O)c1)c1ccc(N2CCOCC2)cc1 |  | inactive: -27.2% |
| COC(=O)c1ccc(CSc2nc3ccccc3c(=O)n2-c2ccc(OC)c(OC)c2)o1 | inconclusive: 18.4 µM [cytotoxic, partial curve] |  |
| CCOc1ccc(C(=O)CCN2CCCCCC2)cc1 |  | inactive: -13.9% |
| Clc1cccc(C[n+]2cc(-c3ccccc3)n3c2CCC3)c1 |  | inactive: -7.58% |
| C/C(=C/C(=O)NCc1ccccc1)C(=O)O |  | inactive: 3.53% |
| CCOC(=O)C1=C(N)OC2=C(C(=O)CCC2)C1c1sccc1C (stereo unspecified) | inconclusive: 18.4 µM [rising, partial curve] |  |
| CN(CC(=O)Nc1cccc(F)c1)C(=O)c1cccnc1Sc1ccc(Cl)cc1 | inconclusive: 9.2 µM [cytotoxic, partial curve] |  |
| O=C(CSc1nnc(-c2cccnc2)n1Cc1ccco1)c1ccc(Cl)cc1 | inconclusive: 14.6 µM [cytotoxic, partial curve, poor fit] |  |
| Cc1ccc(S(=O)(=O)Nc2cc3c(cc2NCc2ccccc2)n(C)c(=O)n3C)c(C)c1 | inconclusive: 3.66 µM [cytotoxic, partial curve, poor fit] |  |
| CC1CCN(CCCOc2ccc(Cl)cc2Br)CC1 |  | inactive: -14.6% |
| Cc1coc2cc3oc(=O)cc(C)c3cc12 |  | inactive: -35.8% |
| Cc1ccc2nc(NC(=O)CSCC(=O)OCC(=O)c3ccc(Br)cc3)sc2c1 |  | inactive: 10.8% |
| COc1ccccc1CN1C[C@@H]2C[C@@H](C3=Cc4cccc(OC)c4OC3)N3CCC[C@@]23C1=O |  | inactive: -22.4% |
| CCOC(=O)N/N=C(C)/C=C/c1ccccc1 |  | inactive: 12.8% |
| CCCC1=Nc2cc(C(=O)NCc3ccc(OC)cc3)ccc2Sc2ccc(C)cc21 | inconclusive: 29.1 µM [cytotoxic, single point] |  |
| CCOc1cc(C(N)=O)cc(OCC)c1OCC |  | inactive: 6.96% |
| COC(=O)c1c(N2C(=O)[C@H]3[C@@H](C2=O)[C@]2(C(=O)Nc4c(C)cccc42)N2CCC[C@@H]32)sc(C)c1C | inconclusive: 8.2 µM [cytotoxic, partial curve, poor fit] |  |
| O=C(Nc1ccccc1C(=O)Nc1ccccc1)c1ccccc1Br | inconclusive: 18.4 µM [cytotoxic, single point] |  |
| Cc1ccccc1S(=O)(=O)c1c(C)cc(-c2ccccc2)[nH]c1=O | inconclusive: 29.1 µM [cytotoxic, single point] |  |
| O=C(CCC1N=C2c3ccccc3N=C(SCc3ccc(F)cc3)N2C1=O)NCc1ccc(F)cc1 (stereo unspecified) | inconclusive: 29.1 µM [rising, single point] |  |

Two entries from above in another layout:
O=C(/C=C/c1cccc(O)c1)c1ccc(N2CCOCC2)cc1
  activity change, negative = cytotoxicity: inactive: -27.2%
COC(=O)c1ccc(CSc2nc3ccccc3c(=O)n2-c2ccc(OC)c(OC)c2)o1
  Potency: inconclusive: 18.4 µM [cytotoxic, partial curve]
